Drawing on paper PMC11016120, this text covers binding for one molecule.

Results are given in words; binding and its absence hold for the method and conditions named. In cells and extracts the contact can be indirect. Some results given as binding are weak or reduced against the parent protein; the word gives no strength.

In assay [1] the target is T1, lipopolysaccharide-binding protein (LBP) (UniProt P18428).
T1 sequence: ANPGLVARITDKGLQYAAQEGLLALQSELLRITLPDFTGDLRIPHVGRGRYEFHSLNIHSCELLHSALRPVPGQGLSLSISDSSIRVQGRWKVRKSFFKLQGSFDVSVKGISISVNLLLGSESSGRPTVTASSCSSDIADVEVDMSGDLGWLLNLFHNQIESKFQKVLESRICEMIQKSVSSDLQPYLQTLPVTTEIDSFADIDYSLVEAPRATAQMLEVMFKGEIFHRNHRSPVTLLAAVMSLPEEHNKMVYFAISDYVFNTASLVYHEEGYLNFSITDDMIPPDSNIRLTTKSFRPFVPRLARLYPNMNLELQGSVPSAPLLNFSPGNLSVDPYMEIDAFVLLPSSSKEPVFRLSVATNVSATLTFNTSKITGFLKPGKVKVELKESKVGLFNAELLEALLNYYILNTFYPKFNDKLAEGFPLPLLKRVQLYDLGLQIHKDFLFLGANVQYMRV
Description: co-IP; total protein extracted by 1% Triton and sonication; Protein A/G magnetic beads; western blot.

For assay [2], the target named is T1, lipopolysaccharide-binding protein (LBP). Kind of assay: co-IP; cells under intense oxidative stress (H2O2 treatment); total protein extracted by 1% Triton and sonication; Protein A/G magnetic beads; western blot.

B1: peroxiredoxin 4 (PRDX4) (protein, UniProt Q13162 38-271)
chain: WETEERPRTREEECHFYAGGQVYPGEASRVSVADHSLHLSKAKISKPAPYWEGTAVIDGEFKELKLTDYRGKYLVFFFYPLDFTFVCPTEIIAFGDRLEEFRSINTEVVACSVDSQFTHLAWINTPRRQGGLGPIRIPLLSDLTHQISKDYGVYLEDSGHTLRGLFIIDDKGILRQITLNDLPVGRSVDETLRLVQAFQYTDKHGEVCPAGWKPGSETIIPDPAGKLKYFDKLN
Turning to B1, the figures for the binding result in assay [1] and in assay [2] were “binds” and “no binding (condition: with H2O2 treatment)”, respectively.
